Results: US5114926A (Institut National De La Sante Et De La Recherche Medicale, priority 1986, dated 1992)

Test: general procedure: solution-phase peptide synthesis
Settings: coupling step

Substance: Boc-S(Bzl)-D(OBZl)-K(Z)-P--OH
- step yield: 89%
